Experimental data published in PubChem BioAssay AID1347072 (National Center for Advancing Translational Sciences (NCATS), 2019).
The campaign covered roughly 44,000 compounds. Fewer than 10 were called active. The shares of active, inactive and inconclusive entries below differ from those in the screen. Calls come from the whole dose curve; as a rule, active = well fitted curve in the direction sought with a large enough effect; inconclusive = small, poorly fitted or top-dose-only effect, or another doubt; inactive = no such curve, though single readings can be large or run the other way. Potencies beside an inconclusive call are fits to weak or partial responses and may not hold up.

Protein sequences, listed by entry. Tags and fused reporters are not part of them. Lines headed by an entry give the natural chain unless they say otherwise; changes in a name come on top.
UniProt P51570: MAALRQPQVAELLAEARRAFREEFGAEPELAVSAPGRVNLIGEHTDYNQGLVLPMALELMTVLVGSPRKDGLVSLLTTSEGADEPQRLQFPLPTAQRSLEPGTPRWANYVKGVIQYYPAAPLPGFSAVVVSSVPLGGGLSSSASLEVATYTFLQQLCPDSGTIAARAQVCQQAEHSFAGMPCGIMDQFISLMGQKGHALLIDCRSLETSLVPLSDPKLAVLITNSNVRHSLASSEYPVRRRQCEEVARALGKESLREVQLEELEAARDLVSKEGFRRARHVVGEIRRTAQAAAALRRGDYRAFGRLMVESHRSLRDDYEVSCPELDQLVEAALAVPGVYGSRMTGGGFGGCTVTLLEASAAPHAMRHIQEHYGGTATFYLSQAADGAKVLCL

Each compound was assayed against Galactokinase (Homo sapiens) (UniProt P51570) (assay: qHTS Assay for Inhibitors of Human Galactokinase (GALK): NCGC Sytravon Library Screen). Details: recombinant GALK, Kinase-Glo ATP luminescence, 1 h; series mostly up to 57.5 µM; activity, negative = inhibition: at the top concentration.
Source text: Inherited deficiency of galactose-1-phosphate uridyltransferase (GALT) can result in a potentially lethal disorder called Classic Galactosemia (OMIM 230400). Several lines of evidence indicate that an elevated level of galactose-1-phosphate (gal-1-p), the product of galactokinase (GALK), is a major, if not sole, pathogenic mechanism in patients with classic galactosemia. Therefore, finding inhibitors of GALK is a potential novel therapy for this inherent metabolic disease and is the long term goal of this project. This screen is run against the NCGC Sytravon compound library collection. GALK (provided by Kent Lai) was assayed using ATP and D-(+)-Galactose (Sigma-Aldrich cat# G0750) as substrates. Promega Kinase-Glo Plus technology was used to detect kinase activity. Reactions with and without GALK were used as negative and positive controls together with Protein Tyrosine Phosphatase CD45 inhibitor (EMD Bioscience cat# 540215) which is shown to inhibit GALK activity. Decrease in activity corresponds to inhibition of the enzyme is the desired outcome for this assay. NIH Molecular Libraries Probe Production Network [MLPCN] NIH Chemical Genomics Center [NCGC] Grant: R03 MH085689-01 PI Name: Kent Lai Ph.D., University of Utah
NCGC Assay Protocol Summary: Three uL/well of ATP-buffer solution (35 uM ATP, 20mM HEPES pH8.0, 5 mM MgCl2, 60 mM NaCl, 1 mM DTT, 0.01% BSA final concentration) was dispensed into 1536-well, assay plates (Greiner, solid white medium-binding plates) with Aurora Discovery BioRAPTR Flying Reagent Dispenser (FRD; Beckton-Dickenson). Compound solution (23 nL) was transferred to the assay plate using the Kalypsys 1536-pin tool. One uL/well GALK-galactose solution (5 nM GALK, 100 uM galactose, 20 mM HEPES pH8.0, 5 mM MgCl2, 60 mM NaCl, 1 mM DTT, 0.01% BSA final concentration) was then added using the FRD yielding a total kinase reaction volume of 4 uL/ well. After 1 hour of room temperature incubation, 4 uL Kinase-Glo Plus reagent was added for a final assay volume of 8 uL/ well. Luminescence was detected with the ViewLux plate reader (Perkin Elmer, Waltham, MA) after 10 min incubation using a 1 sec exposure time and 2x binning.
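Throughout, for activity, negative = inhibition: plate controls were full GALK reaction for no effect and reaction lacking GALK for full effect.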

SMILES | Potency | activity, negative = inhibition
CC(=O)N1c2ccc(S(=O)(=O)NCC3CCC(C(=O)NC(C)(C)C)CC3)cc2CC1C (stereo unspecified) | inconclusive: 0.224 µM [inhibitor, full curve, poor fit] | 
O=C(COc1ccc(F)cc1)Nc1ccc2nc(SCC(=O)N3CCCC3)sc2c1 | inconclusive: 8.91 µM [inhibitor, partial curve, poor fit] | 
CC(NC(=O)c1cc2c(=O)n3ccccc3nc2n(C(C)C)c1=N)c1ccccc1 (stereo unspecified) |  | inactive: 16.3%
CCCN(CCC)CCCNC(=O)c1cc2c(=O)n(C)c3ccccc3c2s1 |  | inactive: 7.91%
Cc1ccc(NC(=O)C2CCN(S(=O)(=O)c3cccc4nsnc34)CC2)cc1F |  | inactive: 8.48%
Oc1ccc(-c2nc3ccccn3c2Nc2ccc3c(c2)OCCO3)cc1 |  | inactive: 0.633%
CCOc1ccc(NC(=O)c2sc3nc4c(cc3c2N)CCCCCC4)cc1 |  | inactive: 2.86%
Cc1ccc2nc(COc3ccc(NC(=O)COc4ccccc4F)cc3)cc(=O)n2c1 | inconclusive: 0.158 µM [inhibitor, full curve, poor fit] | 
COc1ccc(Nc2c(-c3ccc(Cl)cc3)nc3cnccn23)cc1OC | inconclusive: 22.4 µM [inhibitor, partial curve, poor fit] | 
Cc1ccc2nc(/C(C#N)=C/c3cccc(Br)c3)[nH]c2c1 | inconclusive: 7.08 µM [inhibitor, partial curve, poor fit] | 
Cc1ccc(-c2ccc(=O)n(Cc3ccc(F)cc3)n2)cc1 | inconclusive: 39.8 µM [inhibitor, partial curve, poor fit] | 
CC1CCN(c2ccc(NC(=O)c3cccc(Cl)c3)cc2C(=O)O)CC1 |  | inactive: 3.05%
Cc1nc(CC(=O)Nc2ccc(C)c(C)c2)cs1 | inconclusive: 39.8 µM [inhibitor, partial curve, poor fit] | 
CC(CNC(=O)c1sc2ncccc2c1-n1cccc1)c1ccccc1 (stereo unspecified) | inconclusive: 35.5 µM [inhibitor, partial curve, poor fit] | 
CCN(CC)c1ccc(NC(=O)CN2CCN(S(=O)(=O)c3ccc(C(C)C)cc3)CC2)cc1 | inconclusive: 0.199 µM [inhibitor, full curve, poor fit] | 
COc1ccc(CNC(=O)CN2C(=O)COc3ccc(S(=O)(=O)N4CCOCC4)cc32)cc1 | inconclusive: 0.708 µM [inhibitor, partial curve, poor fit] | 
Cc1ccc(Cn2c(C)c(CNC(C)c3ccccc3)c(C(=O)O)c2C)cc1 (stereo unspecified) |  | inactive: 0.412%
CCc1ccc(C2=C(C)C(N3CCC(C(=O)NCCc4ccco4)CC3)=NS2(=O)=O)cc1 | inconclusive: 5.62 µM [inhibitor, full curve, poor fit] | 
COc1ccc(NC(=O)c2cc3c(=O)n(Cc4cccnc4)ccc3nc2C)cc1Cl | inconclusive: 7.94 µM [inhibitor, partial curve, poor fit] | 
COc1ccccc1N1CCN(C(CNC(=O)C(=O)NCCc2ccccc2)c2cccnc2)CC1 (stereo unspecified) | inconclusive: 6.31 µM [inhibitor, partial curve, poor fit] | 
CCOc1ccc(CNS(=O)(=O)c2cc(-c3cc(C)no3)ccc2C)cc1OC |  | inactive: -0.901%

SMILES | Potency | activity, negative = inhibition
CCOC(=O)Cn1c(=O)n(-c2ccccc2OC)c2nc(-c3ccccc3C)nc(C(N)=O)c21 | inconclusive: 0.631 µM [inhibitor, full curve, poor fit] | 
Cc1ccc2nc(CSc3nnc(NC(=O)COc4ccccc4)s3)cc(=O)n2c1 | inconclusive: 25.1 µM [inhibitor, partial curve, poor fit] | 
CN1CC(=O)N(CC(=O)Nc2ccc(Cl)c(C(F)(F)F)c2)c2ccccc2C1=O |  | inactive: -1.92%
CCc1cccc(NC(=O)CSc2ncc3c(n2)-c2ccccc2N(Cc2ccccc2C)S3(=O)=O)c1 | inconclusive: 1.58 µM [inhibitor, partial curve, poor fit] | 
CCn1c(CN2CCOCC2)nc2cc(NC(=O)c3cc(OC)c(OC)c(OC)c3)ccc21 | inconclusive: 0.891 µM [inhibitor, full curve, poor fit] | 
Cc1ccc(C(C)C)c(OCC(=O)Nc2ccc(-c3nc4ncccc4o3)cc2C)c1 | inconclusive: 28.2 µM [inhibitor, partial curve, poor fit] | 
CCOC(=O)c1ccc(NC(=O)C2CCCN(c3cnccn3)C2)cc1 (stereo unspecified) | inconclusive: 39.8 µM [inhibitor, partial curve, poor fit] | 
Cn1cc(-c2cc3n(n2)CCC(=O)N3CCCC(=O)NCc2ccccc2)c2ccccc21 | inconclusive: 20 µM [inhibitor, partial curve, poor fit] | 
CC[C@H](C)NC(=O)CCCc1nnc2n(CCC(C)C)c(=O)c3sccc3n12 | inconclusive: 1.41 µM [inhibitor, partial curve, poor fit] | 
CCOc1ccccc1CNC(=O)c1ccc(Cn2c(=O)c3cccn3c3cccnc32)cc1 | inconclusive: 1.41 µM [inhibitor, full curve, poor fit] | 
CC(=O)c1ccc(NC(=O)COc2ccccc2-c2nc(C)no2)cc1 |  | inactive: 0.448%
CC1=C(C(=O)OC2CCCC2)C(c2cccc(Cl)c2Cl)CC(=O)N1 (stereo unspecified) |  | inactive: -6.08%
Cc1cccc(Cn2nnc3c(=O)[nH]c(C4CCCN(C(=O)c5ccc(C(C)(C)C)cc5)C4)nc32)c1 (stereo unspecified) | inconclusive: 20 µM [inhibitor, partial curve, poor fit] | 
COc1ccc2c(CNC3CCC(C)CC3)c(C(=O)O)n(Cc3ccccc3)c2c1 (stereo unspecified) | inconclusive: 2.82 µM [inhibitor, partial curve, poor fit] | 
Cc1ccc(NC(c2cccc(Cl)c2)c2nnc(-c3ccccc3)o2)cc1F (stereo unspecified) | inconclusive: 1.12 µM [inhibitor, full curve, poor fit] | 
COc1ccc2oc(=O)c(-c3nc4ccc(C)cc4[nH]3)cc2c1 |  | inactive: -5.4%
Cc1ccc(OCc2nc3ccccc3n2CC(C)C)cc1 | inconclusive: 1.26 µM [inhibitor, full curve, poor fit] | 
Cc1ccc(NC(=O)c2cc(S(=O)(=O)N3CCOCC3)c(Cl)cc2Cl)cc1 |  | inactive: -3.63%
CCOC(=O)c1ccc(NC(=O)CCc2c(C)nc3c(c(C)nn3C)c2C)cc1 | inconclusive: 10 µM [inhibitor, full curve, poor fit] | 
Cc1ccc(S(=O)(=O)c2[nH]c(-c3ccccc3)nc2SCC(=O)O)cc1 | inconclusive: 22.4 µM [inhibitor, partial curve, poor fit] | 
COc1ccc(/C=C/c2nc(C#N)c(N3CCN(c4ccccc4)CC3)o2)cc1OC |  | inactive: -0.0439%

SMILES | Potency | activity, negative = inhibition
Cn1c(=O)c2c(SCC(=O)NCc3ccco3)nc(-c3ccccc3Cl)nc2n(C)c1=O | inconclusive: 4.47 µM [inhibitor, full curve, poor fit] | 
CCOc1ccc(NC(=O)C(C)Sc2nnc3cc(C)c4ccccc4n23)cc1 (stereo unspecified) | inconclusive: 0.112 µM [inhibitor, full curve, poor fit] | 
Cc1ccc(NC(=O)Cc2c(C(=O)O)c(C)cn2C)cc1Cl | inconclusive: 28.2 µM [inhibitor, partial curve, poor fit] | 
CCc1cccc(NC(=O)Nc2ccc3c(c2)N(C)C(=O)c2ccccc2S3)c1 | inconclusive: 0.891 µM [inhibitor, full curve, poor fit] | 
CCOc1ccc(/C=C/c2nc(C#N)c(N3CCN(c4ccc(OC)cc4)CC3)o2)cc1 | inconclusive: 39.8 µM [inhibitor, partial curve, poor fit] | 
COc1ccc(NCc2cc3cc4c(cc3n(CC(=O)Nc3ccc(F)cc3F)c2=O)OCO4)cc1 | inconclusive: 28.2 µM [inhibitor, partial curve, poor fit] | 
COc1ccc(NC(=O)CN(Cc2ccccc2)S(=O)(=O)c2ccc(C)cc2)cc1Cl | inconclusive: 3.16 µM [inhibitor, partial curve, poor fit] | 
COc1ccc(-n2ccnc(NCc3ccc(Cl)cc3)c2=O)cc1 |  | inactive: 3.04%
COc1cccc2cc(C(=O)Nc3ccc(CC(=O)O)cc3)c(=O)oc12 |  | inactive: -14.8%
CCOc1ccc(S(=O)(=O)N2Cc3ccccc3CC2C(=O)Nc2ccc(NC(C)=O)cc2)cc1 (stereo unspecified) | inconclusive: 3.98 µM [inhibitor, partial curve, poor fit] | 
COc1ccc(Cn2ccc3nc(C)c(C(=O)N4CCN(c5cccc(OC)c5)CC4)cc3c2=O)cc1 |  | inactive: -2.09%
COc1ccc(NC(=O)c2c(NC(=O)C(F)(F)F)sc3c2CCCCC3)cc1 | inconclusive: 25.1 µM [inhibitor, partial curve, poor fit] | 
CCc1ccc(NC(=O)CSc2nnc3[nH]c(=O)cc(-c4ccccc4)n23)cc1 |  | inactive: -5.14%
CCOc1ccc(CNC(=O)CSc2nnc(C)c3c(C)n(-c4ccc(Cl)cc4)nc23)cc1 | inconclusive: 0.708 µM [inhibitor, full curve, poor fit] | 
COc1cccc(CNC(=O)CSC2=Nc3ccccc3N=C(c3ccc(F)cc3)C2)c1 |  | inactive: 0.661%
Cc1cc(C(F)F)n2nc(C(=O)Nc3cc(Cl)ccc3C)nc2n1 | inconclusive: 35.5 µM [inhibitor, partial curve, poor fit] | 
CCOc1ccc(OCC(=O)NCCS(=O)(=O)N2CCN(c3ccc(F)cc3)CC2)cc1 | inconclusive: 3.55 µM [inhibitor, full curve, poor fit] | 
Cc1ccccc1NS(=O)(=O)c1nnc(NC(=O)c2ccc(Cl)cc2)s1 | inconclusive: 7.08 µM [inhibitor, partial curve, poor fit] | 
Cc1cccc(Nc2ncc(NC(=O)c3cccc(F)c3)c(Nc3cccc(C)c3)n2)c1 | inconclusive: 1.26 µM [inhibitor, full curve, poor fit] | 

Rewritten with each value named: two of the compounds above.
CCOc1ccc(/C=C/c2nc(C#N)c(N3CCN(c4ccc(OC)cc4)CC3)o2)cc1
  Potency: inconclusive: 39.8 µM [inhibitor, partial curve, poor fit]
COc1ccc(NCc2cc3cc4c(cc3n(CC(=O)Nc3ccc(F)cc3F)c2=O)OCO4)cc1
  Potency: inconclusive: 28.2 µM [inhibitor, partial curve, poor fit]
